PubChem BioAssay AID720711 (National Center for Advancing Translational Sciences (NCATS), 2013)
Out of some 360,000 compounds screened, about 290 (0.081%) were called active. This list was built around the results that the source calls inconclusive (neither active nor inactive); the mix of calls is not that of the screen. Calls come from the whole dose curve; as a rule, active = well fitted activation curve with a large enough effect; inconclusive = small, poorly fitted or top-dose-only effect; inactive = no such curve, though single readings can be large or run the other way. A potency beside an inconclusive call is a rough fit, not a confirmed value.

Protein sequences, listed by entry. Tags and fused reporters are not part of them.
UniProt Q8WZA2, whole entry, looked up: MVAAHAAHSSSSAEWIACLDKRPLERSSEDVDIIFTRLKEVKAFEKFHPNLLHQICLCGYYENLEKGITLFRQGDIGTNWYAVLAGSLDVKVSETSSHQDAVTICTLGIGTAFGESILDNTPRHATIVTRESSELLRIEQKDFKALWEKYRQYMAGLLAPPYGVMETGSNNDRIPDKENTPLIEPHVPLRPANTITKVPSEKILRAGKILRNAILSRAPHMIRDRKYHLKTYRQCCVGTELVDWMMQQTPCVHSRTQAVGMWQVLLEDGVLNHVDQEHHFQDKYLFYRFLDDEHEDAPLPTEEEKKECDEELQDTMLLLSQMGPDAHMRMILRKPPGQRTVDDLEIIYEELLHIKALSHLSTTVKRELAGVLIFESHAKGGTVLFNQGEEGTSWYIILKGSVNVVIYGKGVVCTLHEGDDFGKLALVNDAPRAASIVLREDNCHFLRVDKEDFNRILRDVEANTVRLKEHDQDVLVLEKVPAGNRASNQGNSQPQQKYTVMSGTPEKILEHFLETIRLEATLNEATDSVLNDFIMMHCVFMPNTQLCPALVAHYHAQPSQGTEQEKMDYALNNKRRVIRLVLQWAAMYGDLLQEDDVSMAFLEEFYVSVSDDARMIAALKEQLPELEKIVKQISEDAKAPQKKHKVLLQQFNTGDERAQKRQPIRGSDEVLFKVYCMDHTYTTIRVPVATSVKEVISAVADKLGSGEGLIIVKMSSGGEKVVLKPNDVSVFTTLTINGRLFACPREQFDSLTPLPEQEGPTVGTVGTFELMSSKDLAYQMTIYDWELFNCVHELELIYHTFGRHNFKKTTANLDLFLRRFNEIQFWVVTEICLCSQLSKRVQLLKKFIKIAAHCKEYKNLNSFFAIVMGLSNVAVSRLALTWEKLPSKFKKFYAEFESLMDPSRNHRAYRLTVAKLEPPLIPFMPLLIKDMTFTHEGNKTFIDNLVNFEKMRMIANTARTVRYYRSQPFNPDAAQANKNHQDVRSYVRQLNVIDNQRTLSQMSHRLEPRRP

Target: Rap guanine nucleotide exchange factor 4 (Homo sapiens) (UniProt Q8WZA2)
Experiment: qHTS for Agonist of cAMP-regulated guanine nucleotide exchange factor 4 (EPAC2): primary screen; note: nearly all actives have a fitted effect of over 50% in size
Settings: biochemical qHTS; Potency: EPAC2 activation unless noted; activation: at 154 µM (top of the series), 100% = 6.5 mM cAMP response unless noted
In short: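 Exchange assay: 100 nM EPAC2 with 250 nM Rap1B-BODIPY-GDP and 50 uM GDP. Fluorescence (ex 480/em 540 nm) read every 5 min for 30 min at room temperature. Data normalized to 6.5 mM cAMP as agonist control.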
Potency is the fitted concentration of half-maximal effect.

**Q.** Which “activation” value does the source give for COc1ccc(NC(=O)CN(C)S(=O)(=O)c2ccc(Cl)cc2)cn1 here?
**A.** inactive: -1.86%

**Q.** CCN1CCN(Cc2c(O)ccc3c2O/C(=C\C=C\c2ccccc2)C3=O)CC1 was tested. Which Potency did it give?
**A.** inconclusive: 100 µM [activator, partial curve]

**Q.** O=C(Nc1ccccc1C(=O)N1CCCCC1)NC1CCCCC1 was tested. Which Potency did it give?
**A.** inconclusive: 39.8 µM [activator, partial curve]

**Q.** For COc1ccccc1OC(C)C(=O)N(Cc1ccco1)C1CCS(=O)(=O)C1 (centres undefined), which “activation” value is on record?
**A.** inactive: 5.12%

**Q.** With Cc1ccc(NS(=O)(=O)c2c(F)cc(F)c(Cl)c2F)cc1S(=O)(=O)N1CCOCC1 as the compound, how does the “activation” value read?
**A.** inactive: 1.2%

**Q.** With O=C(Nc1ccc(Nc2ccncc2)cc1)c1ccc(Nc2ccnc3ccc([N+](=O)[O-])cc23)cc1 as the compound, how does the Potency read?
**A.** inconclusive: 126 µM [activator, partial curve, poor fit]

**Q.** For COc1cc(NC(C)CCCNC(C)C)c2ncccc2c1OC (centres undefined), which “activation” value is on record?
**A.** inactive: -1.12%

**Q.** How did the “activation” value turn out when Cc1ccc(CN2C(=O)N/C(=C\c3ccc(-c4ccc(C(=O)O)cc4C)o3)C2=O)cc1 was run?
**A.** inactive: 2.17%

**Q.** Which Potency does the source give for O=S(=O)(NC1CC1)c1ccc(S(=O)(=O)N2CCCc3ccccc32)cc1 here?
**A.** inconclusive: 112 µM [activator, single point]

**Q.** With CCCCc1ccc(NC(=O)N[C@H](C(=O)O)C(C)C)cc1 as the compound, how does the Potency read?
**A.** inconclusive: 5.01 µM [activator, full curve, poor fit]

**Q.** Which Potency does the source give for c1ccc(Cc2nnc(N3CCOCC3)c3ccccc23)cc1 here?
**A.** inconclusive: 12.6 µM [activator, full curve, poor fit]

**Q.** CC1(Cc2ccccc2Cl)C(=O)Nc2c(Cl)cccc21 (centres undefined) was tested. Which Potency did it give?
**A.** inconclusive: 112 µM [activator, single point]

**Q.** COc1ccc(N2C(=O)C(CC(N)=O)N(NC(=O)CCc3ccccc3)C2=O)cc1 (centres undefined) was tested. Which “activation” value did it give?
**A.** inactive: -0.45%

**Q.** How did the Potency turn out when O=C1CCN2C=Nc3cccc4ccc1c2c34 was run?
**A.** active: 89.1 µM

**Q.** For CCCCNC1=CC(=O)C(=O)c2ccccc21, which “activation” value is on record?
**A.** inactive: 8.05%

**Q.** COc1ccc(C(=O)c2ccccc2)c2c(O)ccc(C(=O)c3ccccc3)c12 was tested. Which Potency did it give?
**A.** active: 6.31 µM

**Q.** How did the Potency turn out when O=C(/C=C\c1cn(-c2ccccc2)nc1-c1ccc2c(c1)OCCO2)N1CCOCC1 was run?
**A.** inconclusive: 112 µM [activator, partial curve]

**Q.** O=C(c1cccs1)N1C[C@@H](n2cc(C3CC3)nn2)[C@H](O)C[C@@H]1c1ccc(Cl)cc1 was tested. Which “activation” value did it give?
**A.** inactive: 16.8%

**Q.** Which Potency does the source give for Cc1cccc(NC(=O)/C(C#N)=C/c2ccc(Sc3ccccc3)o2)c1C here?
**A.** inconclusive: 100 µM [activator, partial curve]

**Q.** For COc1cc(C)cc(C(=O)O)c1C1=C(O)c2cccc(O)c2C(=O)C1=O, which “activation” value is on record?
**A.** inactive: -0.35%

**Q.** Which activation does the source give for O=C(Cn1c2ccccc2c(=O)c2cc([N+](=O)[O-])ccc21)Nc1ccccc1Cl here?
**A.** inconclusive: 32.7% [activator]

**Q.** Cc1cc(C)cc(N(CC(=O)NCC2CCCO2)S(=O)(=O)c2c(C)noc2C)c1 (centres undefined) was tested. Which “activation” value did it give?
**A.** inactive: 0.467%

**Q.** With Cc1ccc2cccc(Oc3ncnc4scc(-c5ccccc5)c34)c2n1 as the compound, how does the “activation” value read?
**A.** inactive: 2.48%

**Q.** For CCN(CC)c1ccc2cc(C(=O)Nc3ccccn3)c(=O)oc2c1, which Potency is on record?
**A.** active: 100 µM

**Q.** CCOC(=O)CSc1nnc(Cc2cc(=O)[nH]c(=O)[nH]2)n1-c1ccc(Cl)cc1 was tested. Which Potency did it give?
**A.** inconclusive: 126 µM [activator, single point]

**Q.** For COc1ccc(-c2nnc(SCC(=O)c3ccco3)n2-c2ccccc2)cc1, which Potency is on record?
**A.** inconclusive: 100 µM [activator, single point]

**Q.** O=c1c(/C=C(\O)c2ccc(F)cc2)nc2ccccc2n1-c1ccccc1 was tested. Which Potency did it give?
**A.** active: 100 µM

**Q.** For CC(=O)c1ccc(N2CCN(C(=O)c3cc4c(-c5ccccc5F)nn(C)c4s3)CC2)cc1, which Potency is on record?
**A.** inconclusive: 28.2 µM [activator, partial curve]

**Q.** Which Potency does the source give for CCOC(=O)c1c(-c2ccc(OC)cc2)csc1/N=C/C1=C(O)CCCC1=O here?
**A.** inconclusive: 100 µM [activator, partial curve]

**Q.** CN(C)c1cccc(C(=O)Nc2cccc(S(=O)(=O)NC3=NCCC3)c2)c1 was tested. Which “activation” value did it give?
**A.** inactive: -1.88%

**Q.** Which “activation” value does the source give for CCCCCCSc1ccc([C@@H]2[C@@H]3C(=O)N(C)C(=O)[C@@H]3[C@]3(C(=O)OC)CCCCN23)cc1OC here?
**A.** inactive: -4.36%

**Q.** CC(=O)c1ccc(N2C(=O)C3C(C2=O)C(C(=O)c2ccc(Cl)cc2)N2CCCC32)cc1 (centres undefined) was tested. Which Potency did it give?
**A.** active: 100 µM

**Q.** Which Potency does the source give for Cn1c(=O)c(=O)n(C)c2cc(S(=O)(=O)CCC(=O)N3CCCCC3)ccc21 here?
**A.** inconclusive: 126 µM [activator, single point]

**Q.** For O=C(O)CCCNc1cc(N2CCN(C(=O)c3ccco3)CC2)c2noc3c2c1C(=O)c1ccccc1-3, which Potency is on record?
**A.** inconclusive: 112 µM [activator, partial curve]

**Q.** CCN(C(=O)CN1CCN(c2ccccc2O)CC1)c1c(N)n(Cc2ccccc2)c(=O)[nH]c1=O was tested. Which Potency did it give?
**A.** inconclusive: 112 µM [activator, single point]

**Q.** How did the Potency turn out when CCOC(=O)/C(C#N)=C/c1cc2ccccc2nc1N1CCCCC1 was run?
**A.** inconclusive: 112 µM [activator, partial curve, poor fit]

**Q.** For CCOC(=O)C1=C(O)/C(=C/c2cn(CC(=O)NCC3CCCO3)c3ccccc23)SC1=Nc1ccc(C)cc1 (centres undefined), which Potency is on record?
**A.** inconclusive: 112 µM [activator, single point]

**Q.** Cc1nc(Nc2cnc(/C=C/c3cc(C(=O)Nc4cccc(C(F)(F)F)c4)ccc3C)cn2)cc(N2CCNCC2)n1 was tested. Which Potency did it give?
**A.** inconclusive: 79.4 µM [activator, partial curve]

**Q.** With O=C(O)C(c1ccccc1)N1C(=O)/C(=C\c2ccc(-c3ccccc3Cl)o2)SC1=S (centres undefined) as the compound, how does the Potency read?
**A.** active: 112 µM

**Q.** With CC(C)=CCC[C@](C)(O[C@@H]1O[C@H](CO[C@@H]2O[C@H](CO)[C@@H](O)[C@H](O)[C@H]2O)[C@@H](O)[C@H](O)[C@H]1O)C1CC[C@]2(C)C1C(=O)CC1[C@@]3(C)CC[C@H](O[C@H]4O[C@@H](CO)[C@H](O)[C@@H](O)[C@@H]4O)C(C)(C)C3CC[C@]12C (some centres undefined) as the compound, how does the Potency read?
**A.** inconclusive: 112 µM [activator, single point]

**Q.** How did the Potency turn out when COc1cc(NC(=O)CSc2nc(C)cc(C)n2)cc(OC)c1OC was run?
**A.** inconclusive: 126 µM [activator, partial curve, poor fit]

**Q.** How did the “activation” value turn out when Cc1onc(-c2ccccc2)c1C(=O)OCC(=O)c1ccc(F)cc1 was run?
**A.** inactive: -0.0633%

**Q.** Which Potency does the source give for CCCn1nc(NC(=O)C2CCCO2)c2cc3cccc(C)c3nc21 (centres undefined) here?
**A.** inconclusive: 100 µM [activator, partial curve]

**Q.** How did the Potency turn out when CCOC(=O)CCn1nc(-c2ccc(C)cc2)c2ccccc2c1=O was run?
**A.** inconclusive: 112 µM [activator, single point]

**Q.** With Cc1nc2ccccn2c1C(=O)c1ccccc1 as the compound, how does the Potency read?
**A.** inconclusive: 4.47 µM [activator, full curve, poor fit]

**Q.** Cc1ccccc1C(=O)NCC(=O)N1CCN(c2ccccn2)CC1 was tested. Which Potency did it give?
**A.** inconclusive: 28.2 µM [activator, single point]

**Q.** For O=C(Nc1ccc2c(c1)CCC2)c1cccc(S(=O)(=O)N2CCN(c3ccc(F)cc3)CC2)c1, which activation is on record?
**A.** inconclusive: 35% [activator] [at 15.6 µM, 100% = 6.5 mM cAMP response]

**Q.** For CCC1(C)Cc2c(sc3nc(SC)n(Cc4ccccc4)c(=O)c23)CO1 (centres undefined), which “activation” value is on record?
**A.** inactive: 6.62%

**Q.** Which “activation” value does the source give for Cc1ccc(CN2CCc3[nH]c(=S)[nH]c(=O)c3C2)cc1 here?
**A.** inactive: 14.3%

**Q.** COc1cccc(OC)c1-c1nn2c(-c3cc(-c4ccccc4)n[nH]3)nnc2s1 was tested. Which Potency did it give?
**A.** inconclusive: 10 µM [activator, full curve, poor fit]

**Q.** With O=C1S/C(=C\c2ccc(N3CCOCC3)o2)C(=O)N1c1ccccc1 as the compound, how does the Potency read?
**A.** active: 89.1 µM

**Q.** For CCOC(=O)c1c(CSC(=N)N)n(-c2ccccc2)c2cc(Br)c(OC(C)=O)cc12, which Potency is on record?
**A.** inconclusive: 126 µM [activator, partial curve]

**Q.** Which Potency does the source give for COc1cc(C)ccc1OCC(=O)OCC(=O)c1[nH]c(C)c(C(C)=O)c1C here?
**A.** inconclusive: 50.1 µM [activator, single point]

**Q.** For CCCCc1c(C)c(C#N)c2[nH]c3ccccc3n2c1=O, which Potency is on record?
**A.** inconclusive: 5.01 µM [activator, partial curve]

**Q.** For C=CC[N+](C)(C)CCCNC(=O)/C=N/O, which Potency is on record?
**A.** inconclusive: 126 µM [activator, single point]

**Q.** For Cc1ccccc1CC1(CO)CCCN(Cc2ccccc2Cl)C1 (centres undefined), which Potency is on record?
**A.** inconclusive: 50.1 µM [activator, single point]

**Q.** CCOC(=O)c1ccccc1NC(=S)N1CCC(N2CCCCC2)CC1 was tested. Which Potency did it give?
**A.** inconclusive: 35.5 µM [activator, single point]

**Q.** How did the activation turn out when Cc1cccc(-n2c(N)cc(=O)nc2SCC(=O)NC2CCCCC2)c1 was run?
**A.** inconclusive: 150% [activator] [at 15.6 µM, 100% = 6.5 mM cAMP response]

**Q.** How did the Potency turn out when CC(C)(C)N(NC(=O)Nc1ccc(F)cc1)C(=O)c1ccccc1 was run?
**A.** inconclusive: 100 µM [activator, partial curve]

**Q.** With O=S(=O)(NCc1cn2ccsc2n1)c1cccs1 as the compound, how does the activation read?
**A.** inconclusive: 34.1% [activator] [at 15.6 µM, 100% = 6.5 mM cAMP response]

**Q.** CCOc1cc(/C=C(\C#N)C(=O)Nc2cccc(C(=O)O)c2)ccc1OCc1ccc(Br)cc1 was tested. Which Potency did it give?
**A.** inconclusive: 7.08 µM [activator, full curve, poor fit]

**Q.** With CCC(=O)OCC(=O)C1(OC(=O)CC)[C@H](C)C[C@H]2[C@H]3[C@H]([C@@H](O)C[C@@]21C)[C@@]1(C)C=CC(=O)C=C1C[C@H]3Cl (some centres undefined) as the compound, how does the Potency read?
**A.** inconclusive: 50.1 µM [activator, single point]

**Q.** Cc1noc(C)c1C(=O)Nc1nc2ccc(S(C)(=O)=O)cc2s1 was tested. Which “activation” value did it give?
**A.** inactive: 4.9%

**Q.** With O=C1/C(=C/C=C/c2ccccc2)Oc2c1ccc(O)c2CN1CCN(CCO)CC1 as the compound, how does the Potency read?
**A.** inconclusive: 100 µM [activator, partial curve]
